Results taken from PMC12462522.
Results are given in words; binding and its absence hold for the method and conditions named. In cells and extracts the contact can be indirect.

The chains behind the UniProt entries cited, without tags or fusion partners.
UniProt P19474: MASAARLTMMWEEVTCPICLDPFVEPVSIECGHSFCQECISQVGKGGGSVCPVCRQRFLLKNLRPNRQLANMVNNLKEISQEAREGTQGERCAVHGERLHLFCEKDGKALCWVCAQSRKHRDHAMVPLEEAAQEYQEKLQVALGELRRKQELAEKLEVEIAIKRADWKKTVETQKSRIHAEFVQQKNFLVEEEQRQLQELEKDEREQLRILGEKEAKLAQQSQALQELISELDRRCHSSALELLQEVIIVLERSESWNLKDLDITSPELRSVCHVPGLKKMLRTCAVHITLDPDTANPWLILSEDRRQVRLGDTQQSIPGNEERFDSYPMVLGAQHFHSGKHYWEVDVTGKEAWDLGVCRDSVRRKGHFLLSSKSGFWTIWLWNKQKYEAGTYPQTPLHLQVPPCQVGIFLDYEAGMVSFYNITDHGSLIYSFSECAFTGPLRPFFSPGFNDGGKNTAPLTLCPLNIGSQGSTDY
UniProt P15923: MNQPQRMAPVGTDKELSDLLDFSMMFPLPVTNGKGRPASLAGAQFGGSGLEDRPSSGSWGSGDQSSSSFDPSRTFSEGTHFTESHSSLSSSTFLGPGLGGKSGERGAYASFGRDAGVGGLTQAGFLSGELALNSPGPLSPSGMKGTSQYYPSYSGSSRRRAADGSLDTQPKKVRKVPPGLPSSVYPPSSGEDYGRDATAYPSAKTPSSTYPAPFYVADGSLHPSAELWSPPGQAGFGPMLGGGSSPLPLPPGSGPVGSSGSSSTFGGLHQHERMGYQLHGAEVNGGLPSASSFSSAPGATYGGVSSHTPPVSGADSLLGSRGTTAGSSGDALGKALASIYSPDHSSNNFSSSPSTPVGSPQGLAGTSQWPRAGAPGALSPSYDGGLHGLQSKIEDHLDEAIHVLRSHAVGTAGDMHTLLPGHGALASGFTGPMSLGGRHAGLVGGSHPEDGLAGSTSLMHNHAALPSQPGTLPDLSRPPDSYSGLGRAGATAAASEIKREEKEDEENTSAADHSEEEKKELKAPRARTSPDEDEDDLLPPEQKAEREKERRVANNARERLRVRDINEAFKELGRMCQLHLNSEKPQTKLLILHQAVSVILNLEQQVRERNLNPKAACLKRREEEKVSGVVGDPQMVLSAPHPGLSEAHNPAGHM

Biological target: Tripartite motif containing 21 (TRIM21) (human) (UniProt P19474)
Experiment: co-IP; cell lysate in Pierce IP Lysis Buffer; anti-TRIM21, anti-TCF3 or rabbit control IgG overnight at 4 °C, Protein A/G-Agarose, washing, elution with loading buffer, Western blot

Transcription Factor 3 (TCF3) (from UniProt P15923 1-654)
binding: no binding
